Measured values as given in article PMC6546063.
No constants are given. Whether binding was seen depends on the method and setting. In cells and extracts the contact can be indirect. Some entries that bind do so weakly or less than the wild type.

Amino acid sequences for entries named in this document (tags omitted).
UniProt O00308: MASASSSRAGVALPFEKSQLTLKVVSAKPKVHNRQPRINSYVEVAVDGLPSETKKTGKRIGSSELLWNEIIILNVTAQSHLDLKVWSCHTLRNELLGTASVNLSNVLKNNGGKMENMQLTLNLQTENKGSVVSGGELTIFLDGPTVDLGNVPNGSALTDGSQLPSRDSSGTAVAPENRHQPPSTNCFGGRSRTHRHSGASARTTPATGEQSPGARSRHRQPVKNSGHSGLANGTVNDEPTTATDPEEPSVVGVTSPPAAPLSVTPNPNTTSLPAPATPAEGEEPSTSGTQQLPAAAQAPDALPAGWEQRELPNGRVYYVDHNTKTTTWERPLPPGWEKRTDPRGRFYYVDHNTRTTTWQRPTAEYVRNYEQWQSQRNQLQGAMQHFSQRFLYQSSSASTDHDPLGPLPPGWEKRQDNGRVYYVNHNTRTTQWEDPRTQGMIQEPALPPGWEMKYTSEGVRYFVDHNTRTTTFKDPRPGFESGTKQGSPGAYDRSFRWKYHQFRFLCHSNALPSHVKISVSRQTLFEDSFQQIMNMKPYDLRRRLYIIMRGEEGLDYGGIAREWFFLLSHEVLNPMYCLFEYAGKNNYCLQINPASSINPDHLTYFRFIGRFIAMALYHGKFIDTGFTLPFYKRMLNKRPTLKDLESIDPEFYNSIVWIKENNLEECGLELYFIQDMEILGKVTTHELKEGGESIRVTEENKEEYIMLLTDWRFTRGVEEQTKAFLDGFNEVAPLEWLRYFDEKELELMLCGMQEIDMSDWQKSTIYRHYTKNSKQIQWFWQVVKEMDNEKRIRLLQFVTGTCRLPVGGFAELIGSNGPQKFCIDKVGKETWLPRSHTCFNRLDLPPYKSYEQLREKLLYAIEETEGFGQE
UniProt P13010: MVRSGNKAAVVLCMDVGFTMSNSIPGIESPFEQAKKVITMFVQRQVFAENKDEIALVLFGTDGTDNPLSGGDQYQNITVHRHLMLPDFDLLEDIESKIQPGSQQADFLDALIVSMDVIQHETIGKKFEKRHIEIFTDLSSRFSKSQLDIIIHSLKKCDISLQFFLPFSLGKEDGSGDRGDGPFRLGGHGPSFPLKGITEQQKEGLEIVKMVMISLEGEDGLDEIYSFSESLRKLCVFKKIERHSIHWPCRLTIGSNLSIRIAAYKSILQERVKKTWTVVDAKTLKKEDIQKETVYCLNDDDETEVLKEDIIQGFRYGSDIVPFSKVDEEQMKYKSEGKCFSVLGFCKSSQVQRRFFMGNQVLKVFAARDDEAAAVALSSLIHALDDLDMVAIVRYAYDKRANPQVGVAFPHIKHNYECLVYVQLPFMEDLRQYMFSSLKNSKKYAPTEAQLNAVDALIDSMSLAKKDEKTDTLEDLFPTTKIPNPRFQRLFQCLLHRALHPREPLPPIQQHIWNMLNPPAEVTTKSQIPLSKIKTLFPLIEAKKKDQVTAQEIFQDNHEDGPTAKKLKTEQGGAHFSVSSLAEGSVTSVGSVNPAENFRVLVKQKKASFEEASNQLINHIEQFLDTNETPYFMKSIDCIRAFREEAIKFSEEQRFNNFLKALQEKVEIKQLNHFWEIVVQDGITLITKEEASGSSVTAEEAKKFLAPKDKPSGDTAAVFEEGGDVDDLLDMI

Target: GFP-tagged WWP2 (human) (UniProt O00308)
Assay: co-IP; GFP pull-down under physiological conditions: lysate in EBC buffer (50 mM Tris pH 7.5, 150 mM NaCl, 0.5% NP-40, 2.5 mM MgCl2) with benzonase, GFP-Trap-A beads 2 h or overnight at 4°C, washes with 250 mM NaCl, Western blot

- binding: binds
Substance: Ku80 (endogenous) (from UniProt P13010 1-732)
